From the supplement of paper PMC11348887
Counter-ions that a name gives are not always drawn. This is one part of the list. Most entries show no effect beyond the scatter of the controls. Where a SMILES comes first, the peptide text is derived from it.

Tested on: hPSC-derived cortical neurons (WA09)
Test: nucleus area z-score vs screen plate; higher = larger nuclei (more mature)
Details: 5 µM; treatment: days 7-14 after plating, readout day 21

Compound | nucleus area z-score
C[N+](C)(C)C[C@H](O)CC(=O)[O-] [L-carnitine] | 1.29
Cc1nc(Nc2cnn(C3CCNCC3)c2)nc2c1N(C)C(=O)c1cc3ccccc3cc1N2C | -3.22
[O-][n+]1cccc(CO)c1 [Mepiroxol] | 0.234
COc1cc(N2CCC(N3CCN(C)CC3)CC2)ccc1Nc1ncnc(Nc2ccccc2S(=O)(=O)C(C)C)n1 | -3.61
Nc1ccn([C@@H]2CS[C@H](CO)O2)c(=O)n1 [Lamivudine] | 1.02
C=C1CC[C@H](O)C/C1=C/C=C1\CCC[C@]2(C)[C@@H]([C@H](C)CCCC(C)C)CC[C@@H]12 [Vitamin D3] | 0.196
C[C@]12C=CC(=O)N[C@@H]1CC[C@@H]1[C@@H]2CC[C@]2(C)[C@@H](C(=O)Nc3cc(C(F)(F)F)ccc3C(F)(F)F)CC[C@@H]12 [Dutasteride] | -0.0339
CC[C@@](C)(Nc1ccnc(-c2c[nH]c3ncccc23)n1)C(=O)NCC(F)(F)F [Decernotinib (VX-509)] | -0.222
O=C(c1ccc(/C=C/c2n[nH]c3ccccc23)cc1)N1CCNCC1 | 0.675
Nc1cc(F)ccc1NC(=O)/C=C/c1cnn(C/C=C/c2ccccc2)c1 | 0.0344
O=C(OCc1ccccc1)c1ccccc1 [Benzyl benzoate] | 0.722
COC(=O)[C@H](Cc1ccccc1)NC(=O)[C@@H](N)CC(=O)O [Aspartame] (H-Asp-Phe-OMe) | 0.229
CC(C)[C@H](N)C(=O)OCCOCn1cnc2c(=O)nc(N)[nH]c21 [Valaciclovir HCl] | 1.33
COC(=O)[C@H](c1ccccc1Cl)N1CCc2sccc2C1 [Clopidogrel] | -1.43
CC(C)(c1ccc(OCC(O)CO)cc1)c1ccc(OCC(O)CCl)cc1 (centres undefined) | 0.265
C[C@H](CS)C(=O)N1CCC[C@H]1C(=O)O [Captopril] | -0.214
CCCC[C@@H](C=O)NC(=O)[C@H](CC(C)C)NC(=O)OCc1ccccc1 [Calpeptin] | 1.35
CCOC(=O)[C@@H](N)Cc1ccc(-c2cc(O[C@H](c3ccc(Cl)cc3-n3ccc(C)n3)C(F)(F)F)nc(N)n2)cc1 [Telotristat Etiprate (LX 1606 Hippurate)] | 0.294
c1cn2cc(-c3ccc4cn[nH]c4c3)nc(Nc3ccc(N4CCOCC4)cc3)c2n1 | 0.415
C[C@H]1[C@@H](O)O[C@@H]2O[C@@]3(C)CC[C@H]4[C@H](C)CC[C@@H]1[C@@]24OO3 [Dihydroartemisinin (DHA)] | 1.16

Compound | nucleus area z-score
OC[C@@H](O)[C@@H](O)CO [Erythritol] | 0.407
COc1cc(N2CCN(C)CC2)ccc1Nc1nccc(-c2cn(C)c3cnccc23)n1 | -11.8
O=C(Cc1ccccc1)Nc1nnc(CCSCCc2nnc(NC(=O)Cc3ccccc3)s2)s1 | 0.313
Cc1cc2c(F)c(Oc3ncnn4cc(OC[C@@H](C)O)c(C)c34)ccc2[nH]1 | 0.115
CCn1c(=O)c2c(nc(/C=C/c3ccc(OC)c(OC)c3)n2C)n(CC)c1=O [Istradefylline] | -0.0278
C[C@H]1[C@H](C)CC[C@]2(C(=O)O)CC[C@]3(C)C(=CC[C@@H]4[C@@]5(C)C[C@@H](O)[C@H](O)[C@@](C)(CO)[C@@H]5CC[C@]43C)[C@H]12 [Asiatic Acid] | 0.225
Cc1cc(=O)[nH]c(=S)[nH]1 [Methylthiouracil] | -0.172
C[C@H]1CO[C@@H]2Cn3cc(C(=O)NCc4ccc(F)cc4F)c(=O)c(O)c3C(=O)N12 | 0.17
O=C(O)c1ccccc1Nc1cccc(C(F)(F)F)c1 [Flufenamic acid] | 0.187
O=C(Oc1ccccc1C(=O)O)c1ccccc1O [Sasapyrine] | 0.36
CC(C)C[C@H](NC(=O)[C@H]1O[C@@H]1C(=O)O)C(=O)NCCCCN=C(N)N | -5.7
COc1cc(-c2cc(-c3cccc(O)c3)cnc2N)cc(OC)c1OC | 3.58
Cc1cc(Nc2cc(CN3CCOCC3)c3nc(C)c(Cc4ccc(Cl)cc4F)n3n2)n[nH]1 | -0.769
N=C(N)NCCC[C@H](N)C(=O)O [L-Arginine HCl (L-Arg)] | 0.0676
COc1cc(Nc2ncc(F)c(Nc3ccc4c(n3)NC(=O)C(C)(C)O4)n2)cc(OC)c1OC | -0.0298
C#CCC(Cc1cnc2nc(N)nc(N)c2n1)c1ccc(C(=O)N[C@@H](CCC(=O)O)C(=O)O)cc1 (some centres undefined) [Pralatrexate] | 0.702
Cc1nccn1CC1CCc2c(c3ccccc3n2C)C1=O (centres undefined) [Ondansetron HCl] | -1.59
C[C@]1(c2nc3c(C(N)=O)cccc3[nH]2)CCCN1 [Veliparib (ABT-888)] | 0.406
Cc1ccc(-n2nc(C(C)(C)C)cc2NC(=O)Nc2ccc(OCCN3CCOCC3)c3ccccc23)cc1 [BIRB 796 (Doramapimod)] | 0.122

Taken from above:
Cc1cc(Nc2cc(CN3CCOCC3)c3nc(C)c(Cc4ccc(Cl)cc4F)n3n2)n[nH]1 – nucleus area z-score: -0.769
COc1cc(Nc2ncc(F)c(Nc3ccc4c(n3)NC(=O)C(C)(C)O4)n2)cc(OC)c1OC – nucleus area z-score: -0.0298
